The text below walks through data of article PMC6698652, “Boundaries of eliminated heterochromatin of Tetrahymena are positioned by the DNA-binding protein Ltl1”.

The target in this data set is T1, MBP-Ltl1 (Tetrahymena thermophila) (UniProt I7MGR7).
T1 sequence (looked up, limits assumed): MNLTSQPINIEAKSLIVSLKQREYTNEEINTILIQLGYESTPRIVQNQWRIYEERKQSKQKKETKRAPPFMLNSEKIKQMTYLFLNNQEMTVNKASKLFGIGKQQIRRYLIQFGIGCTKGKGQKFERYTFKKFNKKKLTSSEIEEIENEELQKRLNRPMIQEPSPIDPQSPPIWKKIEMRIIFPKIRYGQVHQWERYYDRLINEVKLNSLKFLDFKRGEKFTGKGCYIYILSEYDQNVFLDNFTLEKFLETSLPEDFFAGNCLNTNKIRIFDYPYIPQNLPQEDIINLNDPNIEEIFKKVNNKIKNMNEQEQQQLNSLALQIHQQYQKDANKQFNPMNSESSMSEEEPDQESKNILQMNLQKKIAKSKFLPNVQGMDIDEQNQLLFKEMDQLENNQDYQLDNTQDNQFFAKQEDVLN
Description: EMSA. The note with it: EMSA as in Carle et al. (ref 20), binding buffer and temperature not given, probes annealed in 10 mM Tris pH 7.5, 5% glycerol, 100 mM KCl, recombinant protein, label: 5' 32P. (In general: A gel shift assay detects complexes by their altered migration in electrophoresis.)

[1] abbreviates: 5 uM poly-dGdC competitor, Kd not significantly altered.

Construct, isoform or probe ends are uncertain for at least one entry. At least one verdict rests on a figure or table, not on a statement of the authors. Protein sequences can lack the tags named with them.

Take “GAAATTAATATAATTATAATTTTAAACAGTGTAAAACCCAAAAAGCTA (double strand) [R IES left flank -40/-88 ds (R_IES_EMSA_probe2)]”: the binding result under setting [1] is given as “binds”.

On to “TTATTTGATTAATTAATTTTATTTACGGTAAAGGTTTATATATTAAGGCCACAATATAC (double strand) [D IES left flank -30/-88 ds (IESD_EMSA_probe1)]”, for which the binding result under setting [1] is “binds”.

As for “TTTATTAATCAAAAAGGGGGTAAATAATAA (double strand) [M IES left flank ds]”, the binding result was “binds”.
